Data on two molecules can be found in publication PMC3057987 (PLoS ONE, 2011).

Protein sequences, listed by entry. Tags and fused reporters are not part of them. Lines headed by an entry give the natural chain unless they say otherwise; changes in a name come on top. Chains listed by the source or under a name are the forms on record and can include a tag or linker. Residues count along the entry.
UniProt Q00987: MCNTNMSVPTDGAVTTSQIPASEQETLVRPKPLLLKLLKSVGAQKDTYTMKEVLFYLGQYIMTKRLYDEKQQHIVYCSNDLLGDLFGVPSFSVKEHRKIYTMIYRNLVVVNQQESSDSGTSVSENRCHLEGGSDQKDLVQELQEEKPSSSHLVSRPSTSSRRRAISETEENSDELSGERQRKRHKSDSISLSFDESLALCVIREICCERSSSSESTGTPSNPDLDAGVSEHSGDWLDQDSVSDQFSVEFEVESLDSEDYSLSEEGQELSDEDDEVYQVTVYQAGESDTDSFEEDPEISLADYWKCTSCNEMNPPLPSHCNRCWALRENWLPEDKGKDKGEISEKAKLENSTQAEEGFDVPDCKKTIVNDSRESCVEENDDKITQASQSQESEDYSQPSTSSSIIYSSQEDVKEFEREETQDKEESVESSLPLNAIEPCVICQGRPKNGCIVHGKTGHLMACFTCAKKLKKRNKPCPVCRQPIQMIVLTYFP
MDM2_(7–300) fused to the TAP tag (human (A549 cell-derived cDNA library)): residues 7-300 of Q00987

Results are given in words; binding and its absence hold for the method and conditions named. In cells and extracts the contact can be indirect. Some binding calls cover weakened binding; strength is not graded here. Sequences can lack the tags named with a protein.

Experiment [1] addresses T1, GFP-MIP, expressed in HCT116-p53+/+ cells.
T1 sequence: PRFWEYWLRLME
The experiment is described as follows: co-IP; HCT116-p53+/+ cells transfected with GFP-fusion plasmids, 24 h; lysis in TNE buffer (10 mM Tris-HCl pH 7.8, 150 mM NaCl, 1 mM EDTA, 1% NP-40); anti-GFP agarose 2 h at 4°C; western blot with anti-MDM2.

Experiment [2] concerns the target T2, MIP fused to a FLAG-tagged thioredoxin scaffold protein (Ad-MIP).
T2 sequence: PRFWEYWLRLME
Put plainly: co-IP; HCT116-p53+/+ cells infected with 400 MOI of Ad-3A, DI or MIP and 8 MOI of Ad-Cre, 48 h; immunoprecipitation with anti-FLAG antibody; western blot with anti-MDM2 or anti-FLAG. For orientation: A western blot detects proteins with antibodies after separation by electrophoresis.

The target of experiment [3] is T3, 3A fused to a FLAG-tagged thioredoxin scaffold protein (Ad-3A).
T3 sequence: LTAEHYAAQATS
The experiment is described as above.

Experiment [4] addresses MDM2_(7–300) fused to the TAP tag (human (A549 cell-derived cDNA library)) (UniProt Q00987). Put plainly: pull-down; in vitro translated GFP-tagged peptide incubated with TAP-tagged MDM2 immobilized on IgG beads, 1 h at 4°C; washed three times with IPP150 (10 mM Tris-HCl pH 8.0, 150 mM NaCl, 0.1% NP-40); GFP fluorescence on SDS-PAGE gel; only the target purified.

Take “MDM2, endogenous in HCT116-p53+/+ cells (from UniProt Q00987 1-491)”: the binding result was “binds” in experiment [1], “binds” in experiment [2] and “no binding” in experiment [3].

B1: MIP (MDM2 Inhibitory Peptide), synthetic peptide (peptide)
peptide: PRFWEYWLRLME
notes: 12-mer selected by mRNA display from a partially randomized library; also called X12-1; source: synthetic peptide
For the molecule B1, in experiment [4], the binding result is “binds”.
